For at least one entry, the source does not settle the construct or the ends of the probe. For some assays here: A negative result means that nothing was seen under these conditions. For some assays here: The comparison behind a weaker result is the experiment's own reference, which may not be listed here. For some assays here: At least one verdict was read from the data and is not stated in words by the source.

Two sequences from paper PMC10989989, “The archaeal KEOPS complex possesses a functional Gon7 homolog and has an essential function independent of the cellular t^6A modification level” (mLife, 2023) can be followed below.

Assay in all cases: EMSA
Data set [1] relates to TkoCgi121 (Thermococcus kodakarensis). The settings on record: 10 nM DNA, up to 20 uM protein, 50 mM Tris-HCl pH 8.0, 100 uM ATP, 37 C 30 min (45 min for the 45 nt ssDNA), 10 nM FAM probe (1 nM in Fig 6B), 8% native PAGE in 0.5x TBE at 4 C, recombinant protein, protein details: 6xHis, label: 5'-FAM.
The subject of data set [2] is MBP-His-SisCgi121 (Saccharolobus islandicus REY15A). The settings on record: binding only at 20 uM, likely nonspecific, 50 mM Tris-HCl pH 8.0, 100 uM ATP, 37 C 30 min (45 min for the 45 nt ssDNA), 10 nM FAM probe (1 nM in Fig 6B), 8% native PAGE in 0.5x TBE at 4 C, recombinant protein, protein details: MBP, 6xHis, label: 5'-FAM.
Data set [3] has as its system SisSSB. Conditions: 5 uM, positive control; 50 mM Tris-HCl pH 8.0, 100 uM ATP, 37 C 30 min (45 min for the 45 nt ssDNA); 10 nM FAM probe (1 nM in Fig 6B); 8% native PAGE in 0.5x TBE at 4 C; recombinant protein; label: 5'-FAM; single-stranded DNA.

As for “CAGTATGCTGCGTGAGGAATGATCCCATGACGTAACCACAGTGCC (double strand) [FAM-dsDNA 45 bp with two CCA motifs]”, the binding result in data set [1] is recorded as “no binding”; in data set [2], “binds more weakly”.
In the case of “CAGTATGCTGCGTGAGGAATGATCCCATGACGTAACCACAGTGCC [FAM-ssDNA 45 nt with two CCA motifs]”, the binding result in data set [1] (single-stranded DNA) was “no binding”; in data set [2] (single-stranded DNA), “binds more weakly”; in data set [3], “binds”.
